According to patent publication US20070161644A1, “Erastin analogs and uses thereof” (priority 2005, published 2007):
At least one structure is not confirmed: it was looked up by name or label, or the drawing left a doubt.

Tested on: BJ-TERT/LT/ST/RAS^V12 cells relative to BJ-TERT cells
Assay: Alamar Blue viability assay, tumorigenic versus wild type cells
Assay type: cell-based, human
Experimental: Alamar Blue is reduced by mitochondrial enzyme activity in viable cells, causing both colorimetric and fluorescent changes (Nociari et al., 1998, J. Immunol. Methods 13, 157-167). Cells were seeded at a density of 6000 cells (50 μl) per well in a 384-well black, clear bottom plate using a syringe bulk dispenser (Zymark). 10 μl was removed from a two-fold serially diluted erastin plate (6× final concentration) using a 384 fixed cannula head, making the final concentration 20 μg/ml in the well with highest concentration. The plates were incubated for 24 hours. Alamar Blue (Biosource International) was added to each well by diluting 1:10 and incubated for 16 hours at 37° C. Fluorescence intensity was determined using a Packard Fusion platereader with an excitation filter centered on 535 nm and an emission filter centered on 590 nm. Average percentage inhibition at each concentration was calculated. Error bars indicate one standard deviation.
The effect of erastin or erastin B on cell viability was measured using Alamar Blue as described in Example 3 in both tumorigenic BJ-TERT/LT/ST/RAS^V12 (BJELR) cells and wild type BJ-TERT (BJEH) cells. In this example, cell viability was measured at 1, 2, and 3 days after treatment with erastin or erastin B (data for days 1 and 3 not shown). Average percentage inhibition at each concentration was measured. […]

SMILES: CCOc1ccccc1-n1c(C(C)N2CCN(C(=O)COc3ccc(Cl)cc3)CC2)nc2ccccc2c1=O (stereo not shown) [Erastin, 2-[1′-(N-(4″-chlorophenoxyacetyl)-N-piperazino]-ethyl]-3-(2′″-ethoxyphenyl)-quinazolin-4-one]
- lethality in BJ-TERT/LT/ST/RAS^V12 (BJELR) cells compared to BJ-TERT (BJEH) cells: selective lethality
